Structures are written as SMILES.

The nature of data set [1]: Redox type indicators screened for detection of iron corrosion in water (Example 1). Particulars: 0.1 percent indicator, one percent sodium chloride, room temperature.
A short description of data set [2]: Commercial tetrazolium compounds, detection of iron corrosion (Example 4). Particulars: 0.1 percent solution, one percent sodium chloride.

As for `O=c1ccc2[n+]([O-])c3ccc(O)cc3oc-2c1` [Resazurin, resazurin], in data set [1], the Final color result is listed as “red” and the Initial color result is given as “blue”.
`Cc1cc2nc3ccc(N(C)C)cc3nc2cc1N` [Neutral Red, neutral red]: in data set [1], the Final color result is “yellow” and the Initial color entry was “red”.
Consider `c1ccc(-c2nn(-c3ccccc3)[n+](-c3ccc(-c4ccc(-[n+]5nc(-c6ccccc6)nn5-c5ccccc5)cc4)cc3)n2)cc1` [Compound 8 (Table 6), 2,2',5,5'-tetraphenyl-3,3'(p-diphenylene)ditetrazolium chloride], for which the “Initial color” value in data set [2] was “colorless”. Further, the “Final color” value in data set [2] (precipitate on the metal surface) is on record as “blue”.

These data come from patent US4758312A, “Method for in situ corrosion detection using electrochemically active compounds” (Nalco Chemical Company, priority 1987, dated 1988).
